## Primary screen of a compound library

The chains behind the UniProt entries cited, without tags or fusion partners.
UniProt E9BF75, entry or part of it: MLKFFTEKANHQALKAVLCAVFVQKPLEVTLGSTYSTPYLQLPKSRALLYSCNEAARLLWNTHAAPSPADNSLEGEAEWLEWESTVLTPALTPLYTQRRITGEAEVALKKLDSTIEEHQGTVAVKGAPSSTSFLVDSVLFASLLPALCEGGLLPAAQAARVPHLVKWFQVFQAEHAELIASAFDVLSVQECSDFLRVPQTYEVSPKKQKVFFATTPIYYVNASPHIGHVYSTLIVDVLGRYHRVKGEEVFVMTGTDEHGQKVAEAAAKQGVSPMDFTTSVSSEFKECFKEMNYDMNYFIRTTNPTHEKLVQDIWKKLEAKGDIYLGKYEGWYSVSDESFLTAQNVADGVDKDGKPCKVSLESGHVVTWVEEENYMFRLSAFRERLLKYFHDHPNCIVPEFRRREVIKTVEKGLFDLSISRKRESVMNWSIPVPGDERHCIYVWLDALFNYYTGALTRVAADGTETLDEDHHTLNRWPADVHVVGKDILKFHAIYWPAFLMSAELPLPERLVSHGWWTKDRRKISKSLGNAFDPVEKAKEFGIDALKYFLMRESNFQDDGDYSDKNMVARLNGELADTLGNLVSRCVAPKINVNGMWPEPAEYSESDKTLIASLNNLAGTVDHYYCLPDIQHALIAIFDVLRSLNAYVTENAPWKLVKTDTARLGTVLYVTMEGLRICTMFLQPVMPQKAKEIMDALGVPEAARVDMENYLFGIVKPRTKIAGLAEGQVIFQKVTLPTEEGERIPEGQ

The values are deposited in ChEMBL (CHEMBL3988442, “University of Dundee, Small-Polar-MMV Screening Library” (2021)).

All values are in %.
The record does not define 0% and 100%; most values in the screen are far below 50% and negative numbers occur (in some assays of this library far below -100).
Compounds were drawn at random from those tested, without regard to their results.

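Methionyl-tRNA synthetase (putative), Leishmania donovani (UniProt E9BF75). Primary screen of methionyl-tRNA synthetase; the read-out is not stated. The test concentration is not given. The values are filed as inhibition. Size under these conditions: about 68,000 compounds, about 24 of them at 50% or above in at least one test.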

| structure | Inhibition |
|---|---|
| `Cc1cnn(CCCNC(=O)NCCS(=O)(=O)Nc2ccccc2)c1` | 14.24 |
| `O=C1C(NS(=O)(=O)c2ccc(F)cc2F)CCN1Cc1ccccc1` (configuration not stated) | 12.11 |
| `O=C1C(Sc2nnnn2C2CC2)CCN1c1ccccc1Cl` (configuration not stated) | 16.8 |
| `CN(C)C(=O)CN1CCC2(CCCN(Cc3cccnc3)C2)C1=O` (configuration not stated) | 12.64 |
| `COc1ccc(-c2noc(CNC(C)Cn3cccn3)n2)c(OC)c1` (configuration not stated) | 6.299 |
| `CC(C)n1cnnc1Cn1c(=O)cnc2ccccc21` | 3.2 |
| `Cc1nc(C)n(CC2CCCN2CCOc2ccccc2F)n1` (configuration not stated) | 10.99 |
| `Cc1nc(COCC2CN(C(=O)N(C)C)Cc3nccn3C2)cs1` (configuration not stated) | -4.918 |
| `Fc1cnc(N2CCCC3(CCN(c4ncccn4)C3)C2)nc1` (configuration not stated) | 14.11 |
| `NC(=O)N1CCCC(C(=O)NCCc2nc(Cc3ccccc3)no2)C1` (configuration not stated) | 10.65 |
| `Cc1cc(NCCSc2nccn2C)n2ncnc2n1` | 18.62 |
| `Cc1nc(-c2ccccc2)sc1CNC(=O)c1ccc(=O)n(C)c1` | 16.81 |
| `CCCN1CCC(c2nc3ccc(C)cn3n2)CC1` | 8.798 |
| `CCC1c2ccccc2CCN1C(=O)c1ccnc(C(=O)OC)c1` (configuration not stated) | 10.8 |
| `CC(=O)N1CCCC(c2ccc(C(=O)NC3CCCC3)cn2)C1` (configuration not stated) | 5.825 |
| `O=C(c1cnccn1)N1CCc2ncc(CN3CCOCC3)n2CC1` | 16.42 |
| `O=C(Nc1cc(F)ccc1OCC1CCCO1)N1CCCC1` (configuration not stated) | 9.312 |
| `CC1(c2ccccc2)CCCN(Cc2cncn2C2CCCC2)C1` (configuration not stated) | 16.67 |
| `Cc1nc(C)n(CCCn2ccnc2-c2cc3n(n2)CCCNC3)n1` | 9.589 |
| `CSc1nnc(CC2CCN(C(=O)CCc3cccnc3)CC2)n1C` | 8.447 |
| `O=C1N(Cc2ccccc2)C[C@H]2CN(Cc3ccccc3Cl)CCN12` | 12.09 |
| `COCCNC(=O)[C@@]12CCO[C@@H]1CCN(Cc1scnc1C)C2` | 13.48 |
| `Cc1n[nH]c(C)c1-c1cnc(CC2CCCN(S(C)(=O)=O)C2)cn1` (configuration not stated) | 15.43 |
| `CC(C)C(C)(C#N)NC(=O)CN1CCC(c2ccnn2CCO)CC1` (configuration not stated) | 30.14 |
| `O=C(c1cc(C2CC2)on1)N1CCCC(n2cccn2)C1` (configuration not stated) | 13.72 |
| `CCCS(=O)(=O)NC(=O)c1ccc(CC)o1` | 11.59 |
| `O=S(=O)(CCN1CCOC(Cn2cncn2)C1)c1ccccc1` (configuration not stated) | 7.807 |
| `Cc1ccc(C2COCCN2C(=O)c2ccsc2)o1` (configuration not stated) | 16.45 |
| `OCCOc1cc(F)ccc1NCc1nc(-c2ccoc2)no1` | 19.93 |
| `COc1ccc2[nH]cc(C(=O)N3C[C@@H](O)[C@H](N4CCOCC4)C3)c2c1` | 12.03 |
| `Cn1c(C2CC2)nc2c1CCN(Cc1nc(Cc3ccccc3)no1)C2` | 18.29 |
| `O=C(Cn1cccc1)NCC1CCN(Cc2cc3ccccc3[nH]2)C1` (configuration not stated) | 14.08 |
| `N#CC1(NC(=O)c2cc(Cl)ccc2OC(F)F)CCOCC1` | 8.659 |
| `CCn1nc(C)c2nnn(CC(=O)Nc3ccccc3)c(=O)c21` | 2.261 |
| `CCCc1nc(CN(CC)C(=O)c2ccc3[nH]cnc3c2)no1` | 12.15 |
| `Cc1nccn1C1CCCN(C(=O)c2ccc3c(c2)nnn3C)C1` (configuration not stated) | 15.75 |
| `CC(C)(C)OC(=O)NC1CCC(NC(=O)c2ccc[nH]2)CC1` (configuration not stated) | 17 |
| `CC(C)CN(Cc1nc2c(cnn2C)c(=O)[nH]1)CC(C)C` | 19.2 |
| `CC1CN(C)CCN1C(=O)c1ccn(-c2ccc(F)cc2)n1` (configuration not stated) | 16.24 |
| `COc1cc(CN2CC[C@@H](N3CCCCCC3)[C@H](O)C2)cc(Cl)c1OC` | 16.51 |
| `CN(C)C(=O)N1CCCC(C(=O)N(C)CCCc2cnn(C)c2)C1` (configuration not stated) | 10.31 |
| `CC(=O)N1N=C(c2cccs2)OC1C(=O)Nc1ccc(C)cc1` (configuration not stated) | 11.94 |
| `O=C1CCCc2occ(C(=O)N3CCCC4(CCNC4)C3)c21` (configuration not stated) | 13.83 |
| `CNS(=O)(=O)c1cccc(C(C)NCc2ccc(C)c(C)c2)c1` (configuration not stated) | -7.143 |
| `OCCc1cc(C2CCCN2c2ncccn2)n[nH]1` (configuration not stated) | 7.558 |
| `CC(=O)N1CC[C@H](c2nc3cc(F)ccc3o2)C1` | 3.008 |
| `Cc1nn(CC(C)C)c(N(C)C)c1CNCc1ccc(CO)c(F)c1` | 25.56 |
| `CCc1cc(C)c(C(=O)N2CCCC2CC(=O)c2cnn(C)c2)o1` (configuration not stated) | 3.472 |
| `COC(=O)COc1c(F)cc(Br)cc1C(C)=O` | 16.51 |